# Data taken from patent US20200093764A1, “TREATMENT OF ASTHMA WITH CYSTEAMINE” (CHILDREN'S HOSPITAL MEDICAL CENTER, priority 2017, published 2020).
# At least one compound was matched to its structure with a doubt left.
# Tested on: WT BALB/c mice
# Experiment: Cysteamine vs. corticosteroid (dexamethasone) in HDM-induced asthma (Example 5)
# Format: in vivo
# Conditions: WT mice with asthma (6 i.t. HDM); dexamethasone 3 mg/kg during the last four days
# Description: WT BALB/c mice underwent 6 intratracheal challenges to an allergen (e.g., HDM (25 μg)) to induce asthma development. Control mice underwent 6 intratracheal challenges to saline instead. When asthma was established, a subset of mice received cysteamine (50 mg/kg) treatment for seven days (on challenge days, mice received treatment 30 minutes prior to challenge). A subset of mice received corticosteroid (e.g., dexamethasone) treatment (3 mg/kg) during the last four days.
# To determine the effectiveness of the treatment, airway responsiveness was measured as follows. 24 hours after the last challenge, invasive measurements were made with the FlexiVent apparatus (SCIREQ). Dynamic resistance was assessed after exposure to increasing concentrations of aerosolized methacholine (0, 12.5, and 50 mg/kg).
# To observe Th2/Th17 cytokine production, lung cells were ex vivo stimulated with phorbol 12-myristate 13-acetate (PMA)+ionomycin (0.05 μg/mL and […], respectively) for an hour prior to the addition of Brefeldin-A for an additional two and a half hours. Cells were stained with combinations of CD4-FITC, γδT-cell receptor-PE/Cy7, CD3-AF700, CD44-Pacific Blue, and Live/dead-BV510. After fixation and premeabilization cells were intracellularly stained with IL-13-PE, IL-17A-AF647, IFN-γ-PerCP5.5. Image and data acquisition was done on a FACSCanto III and analyzed with FlowJo software.
smiles,measurement,value
C[C@@H]1C[C@H]2[C@@H]3CCC4=CC(=O)C=C[C@]4(C)[C@@]3(F)[C@@H](O)C[C@]2(C)[C@@]1(O)C(=O)CO [dexamethasone],AHR,decreased AHR
